{"source": "patent US5877202A", "about": "“Indole derivatives useful to treat estrogen-related neoplasms and disorders” (priority 1996, dated 1999)", "tested_on": "estrogen receptor (nuclear and cytosol ER) in MCF-7 cells", "experiment": "Depletion of estrogen receptor from MCF-7 human breast tumor cells (enzyme immunoassay)", "type": "cell-based", "details": "24 hours", "note": "The name of at least one read-out is uncertain.", "data": [{"smiles": "CCCCN(C)C(=O)CCCCCCCNC(=O)Cc1c(C)n(C(=O)c2ccccc2)c2ccc(O)cc12", "note": "[MDL 105,813, 8-[[5-Hydroxy-1-benzoyl-2-methyl-1H-indol-3-yl]-acetylamino]-octanoic acid methyl-butyl-amide]", "values": [{"measurement": "Nuclear ER % Control", "setting": "2 μM", "value": 75, "unit": "% Control"}, {"measurement": "Nuclear ER % Control", "setting": "5 μM", "value": 86, "unit": "% Control"}, {"measurement": "Nuclear ER % Control", "setting": "10 μM", "value": 83, "unit": "% Control"}, {"measurement": "Cytosol ER % Control", "setting": "20 μM", "value": 33, "unit": "% Control"}, {"measurement": "Nuclear ER % Control", "setting": "20 μM", "value": 53, "unit": "% Control"}, {"measurement": "Nuclear ER % Control", "setting": "30 μM", "value": 37, "unit": "% Control"}]}]}
